Reference: publication PMC4024641

T1: Mtl1-3×FLAG (S. pombe) (UniProt O13799)
T1 sequence: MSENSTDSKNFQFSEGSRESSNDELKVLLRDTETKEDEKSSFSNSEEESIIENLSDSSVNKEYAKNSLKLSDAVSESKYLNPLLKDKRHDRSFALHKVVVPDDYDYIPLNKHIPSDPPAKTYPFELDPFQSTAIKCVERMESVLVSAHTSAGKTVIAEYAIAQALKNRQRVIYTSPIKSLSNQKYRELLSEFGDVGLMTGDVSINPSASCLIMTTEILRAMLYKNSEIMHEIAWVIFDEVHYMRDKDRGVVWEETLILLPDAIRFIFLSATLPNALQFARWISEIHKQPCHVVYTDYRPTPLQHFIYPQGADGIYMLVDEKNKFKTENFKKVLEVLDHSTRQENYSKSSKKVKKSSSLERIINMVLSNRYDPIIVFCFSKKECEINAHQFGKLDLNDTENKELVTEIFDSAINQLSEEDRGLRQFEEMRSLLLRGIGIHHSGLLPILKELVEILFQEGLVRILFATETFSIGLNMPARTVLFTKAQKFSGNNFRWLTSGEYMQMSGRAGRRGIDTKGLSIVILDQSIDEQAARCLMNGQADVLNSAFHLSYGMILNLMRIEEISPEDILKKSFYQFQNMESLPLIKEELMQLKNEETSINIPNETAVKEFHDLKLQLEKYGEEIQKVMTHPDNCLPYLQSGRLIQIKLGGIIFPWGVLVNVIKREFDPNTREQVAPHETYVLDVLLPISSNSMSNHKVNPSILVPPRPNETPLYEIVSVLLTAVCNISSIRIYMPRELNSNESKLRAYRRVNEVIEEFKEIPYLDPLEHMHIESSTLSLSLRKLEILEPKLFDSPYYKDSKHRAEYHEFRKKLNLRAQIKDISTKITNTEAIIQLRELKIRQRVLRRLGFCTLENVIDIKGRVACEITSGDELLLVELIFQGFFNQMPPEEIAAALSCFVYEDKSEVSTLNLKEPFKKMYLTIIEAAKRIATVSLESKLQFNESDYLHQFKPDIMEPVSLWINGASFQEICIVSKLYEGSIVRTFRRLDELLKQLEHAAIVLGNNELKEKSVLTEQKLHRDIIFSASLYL

T2: Rmn1-13×myc (S. pombe) (UniProt Q9USP9)
T2 sequence: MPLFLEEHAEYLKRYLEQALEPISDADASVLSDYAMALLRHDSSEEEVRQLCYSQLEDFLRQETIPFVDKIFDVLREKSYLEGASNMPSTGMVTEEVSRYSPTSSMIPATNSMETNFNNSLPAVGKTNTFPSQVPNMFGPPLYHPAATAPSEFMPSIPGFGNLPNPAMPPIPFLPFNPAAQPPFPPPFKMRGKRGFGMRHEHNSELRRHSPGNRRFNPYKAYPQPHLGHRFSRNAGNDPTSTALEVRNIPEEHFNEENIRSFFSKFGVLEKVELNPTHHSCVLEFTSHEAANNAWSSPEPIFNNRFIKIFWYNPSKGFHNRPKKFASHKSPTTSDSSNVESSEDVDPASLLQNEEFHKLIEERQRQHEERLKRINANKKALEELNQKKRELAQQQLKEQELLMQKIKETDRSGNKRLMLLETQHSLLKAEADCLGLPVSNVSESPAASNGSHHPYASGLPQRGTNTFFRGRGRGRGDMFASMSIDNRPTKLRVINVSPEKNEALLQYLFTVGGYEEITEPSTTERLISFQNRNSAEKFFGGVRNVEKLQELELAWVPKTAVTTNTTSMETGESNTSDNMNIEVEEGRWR

T3: Ars2-3×FLAG (S. pombe) (UniProt O94326)
T3 sequence: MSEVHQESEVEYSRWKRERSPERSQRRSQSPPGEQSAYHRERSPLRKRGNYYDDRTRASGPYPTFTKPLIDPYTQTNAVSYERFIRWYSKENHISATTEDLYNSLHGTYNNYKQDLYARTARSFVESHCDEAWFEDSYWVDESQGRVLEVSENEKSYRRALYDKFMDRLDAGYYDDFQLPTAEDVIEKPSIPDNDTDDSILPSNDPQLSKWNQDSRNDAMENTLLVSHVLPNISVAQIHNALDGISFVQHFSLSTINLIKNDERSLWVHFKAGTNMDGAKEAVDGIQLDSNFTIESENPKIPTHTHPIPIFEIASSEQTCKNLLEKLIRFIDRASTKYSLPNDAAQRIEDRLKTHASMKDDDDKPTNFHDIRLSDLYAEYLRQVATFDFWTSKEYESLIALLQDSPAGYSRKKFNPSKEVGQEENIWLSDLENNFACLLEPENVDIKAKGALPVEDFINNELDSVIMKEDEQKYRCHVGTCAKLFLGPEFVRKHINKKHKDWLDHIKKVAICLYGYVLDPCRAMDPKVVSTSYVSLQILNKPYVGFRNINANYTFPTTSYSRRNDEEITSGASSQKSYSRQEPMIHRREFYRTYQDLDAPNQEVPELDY


Columns and labels:
Assay in all cases: affinity purification with mass spectrometry; 3×FLAG- or 13×myc-tagged bait purified from S. pombe cell extract on α-FLAG (M2) or α-myc (9E10) antibody cross-linked to Protein G Dynabeads, 4°C for 3 h, IP buffer (20 mM HEPES pH 7.5, 100 mM NaCl, 5 mM MgCl2, 1 mM EDTA, 10% glycerol, 0.25% Triton X-100, 0.5 mM DTT); LC-MS/MS; Red1-3×FLAG also from iss10Δ, rmn1Δ and Mtl1 knockdown cells
Mtl1-3×FLAG (S. pombe) = molecular target: T1, Mtl1-3×FLAG (S. pombe)
Rmn1-13×myc (S. pombe) = molecular target: T2, Rmn1-13×myc (S. pombe)
Ars2-3×FLAG (S. pombe) = molecular target: T3, Ars2-3×FLAG (S. pombe)

| Binder | binding (Mtl1-3×FLAG (S. pombe)) | binding (Rmn1-13×myc (S. pombe)) | binding (Ars2-3×FLAG (S. pombe)) |
| --- | --- | --- | --- |
| Nab2 (protein, UniProt O13713 1-307) MTTLLETPGYSEKLHDSIEKKLSEYGWGEEAASLADFVLVMLSNGKTQTEINEELVDLIGSDFDTSFSLWLFNQIEELEKSKNASVESVSKIDEIDFIEKESTDKSQQSFSVPETSIQPQSSQTPNITSLREEKELPTGRVGQKLKLTSQKQRFNPMAASFNYSKSVMPAAKRALTQTQEVPLCKYADKCSRANCIFAHPTPAAAPGEGMVLSSEMCASGKECKAADCVKGHPSPATVTTLPPFMSMSTIPIPCKYKPCLNPACRFIHPTKSRNMTWRPPSKTEETSLSERSFAVNESEEQLHVPSV | binds |  |  |
| Kap123 (protein, UniProt O60100 1-1067) MDAQFTLELTQLLFQSIAPDTTQITEATRALETKYLKEPGSLLSLFHIMGTCENPQVRQLAAIEARKLCHKYWSSVDADVQNQIRSNLLDITLKEPESIVRHAFGRVIAALAKLDLPEGKWNELSAFLVQATMDQNDSIREMAVYVLYSIAETVDLDNKLLLDFVNLFSQTITDSSRTVRVTSVQGLGAIAEVLESDDKKLLHAYRATLPGMLLVLQDVVQVGDVDASKQVFDVFNTFLIASGAIISKALGNIIEIITGIANSKQVDDEIRCMALSFIISCIRFKSRKLQALKLGKPLVLTLMEVATEETTDDIDEDCPARLALRSIDLLSTHLSPSQVFYPMFEAACAFSQSPQASYRKAALLSIGVAVEGSSESVAGNLPNIFPIIINGLCDNDMDVRQAALLALSQIAVEIPTEVSKHHAQLLPLVFELMSTQGVKVGKSACNCIDALLEGLDKSEISGYLPMLMERLVGLLEFSDTPDIKSCVAAAIGSAAFAAQDDFIPYFERTMASLSQCLHTTDDDEGYELRGTVMDTLGAIANAVGKQAFLPYTEQLIQLAYEGIQIDHSRLRECSFCFYAVLARVYKEEFAPFLEHIVPALFKSIDQDESDILSERIGAPTAEEISQLLDSVETNEEENDEELEKAMGVNSAIAMEKEIAADALGEICMYVGAPFTPYLEPTVEKLVACTTHFYEGVRKSALSSLWRCATTYYKVCNVPQWQPGLPLKVPVPDTVKNIFEAVRKCTFDTLEEEYEKTVATDILRNFAESIKTCGPVVLGDDYEKLCEVVMEVLQKQHIVQAGDVFDDDFEEEDIVSNEEVDDTEQDALLIDSACDVVIALAVALGGSFADSFKVFYPQIVKYYMSKNGNERAMAVACVGEVAGGIESAITPFTRDVFSLFMAALEDSEGEVRSNAAYSMGLLCQFSTEDLSSEYLNILQKLQPFFTQEVFRTALDNAIGCISRLILHNQNAIPVDQVLPIVFSKLPLKEDYLENAPLYHMILALYRQQNPCLVQHLGELIPVFASVLTGSPEQLNDELRSELLSMVKEIAPQYESVVSNYPQLVALLQ |  | binds |  |
| Mmi1 (protein, UniProt O74958 1-488) MSNTNFSTSRSSKSIPELPNLEALRSLWPPPSLNESGDTRSVWTTHTGEPVASSVLSTSGSNNFSSPLKRPAPESHDAPIGRRLMVDDPRLIKHGKYDFSRHCTDYGHSYEWPYFRSLRRESMLYHTSGSYPESQPPYSSYSTDAPHYYHAGSESSAYYDSRSRLHGIQPPPKRRTLSPPPRRLADPVVVGSSRYVEEEVYRRPPYTLASEVPSSASAYQAGYSSYPVRSSPQLSHEDTRHGIASSGSTRYPFVPANTRASHSPSLLEPYAHSLPSSVAPVGAYPEKSSYLLSNSSNDSASRKEKPKARASTPPPLNFSRASEHRNEKGERISMINPRVVLDENGISHRSRYFIMLCDNETAIAHAKKTSIWAVKKDSSKRISDAYKKASVYFIFVAQQTYNALGYAQVVSDLNSTELPFWSDSSHAGGVRIKWIKTCNLFSAEISEIVSHMDHGSEARDGMEMMYDEGSRLCTLINYAIMKRIGRDR | binds | binds | binds |

The remaining lines, values ahead:

| binding (Mtl1-3×FLAG (S. pombe)) | binding (Rmn1-13×myc (S. pombe)) | binding (Ars2-3×FLAG (S. pombe)) | Binder |
| --- | --- | --- | --- |
| binds | binds |  | Red5-3×FLAG (protein, UniProt O74823 1-376) MNEQQLLENIASLAGAINQYKNEKEPTQVLDAAKANKNTRSYPYSVSRNYSFILNKSNRSKSTAASPPYVIPSTSSNADDANKEPEKQSTSDYVSRKNRHMQLIKKNILEHDLQARKANLESYRAKLEKEYKTLAENKIQQRLSDGTKQLVTIDGLQYITGVSDTKWLEFVSAKGQCPKYLYWNNKSYLLKKKRFLKEVGNSPSAVYCRYYNANGICGKGAACRFVHEPTRKTICPKFLNGRCNKAEDCNLSHELDPRRIPACRYFLLGKCNNPNCRYVHIHYSENAPICFEFAKYGFCELGTSCKNQHILQCTDYAMFGSCNNPQCSLYHGAVSADVPEQTEAPISKTAGSINPEDSGSEIGSNSLESNLDFISV |
|  | binds |  | Rsm1 (protein, UniProt O94506 1-296) MSFPTDMETNEILDQLDKIDERNEDILLKSLKASKCTYKPWSREEFLRRLLTYRSRWAYVNDPQIGEINCCLNGWLCESNNILVCDVCRNKINLTALQQVDAENDSLNELPEKTKERLEVSLKEEHQDNCLWRLHKFPPDIYHLSVSAELVQVGRRFNSLSTRLVSTHLPEEMTLKRLEKVANKIRVDWEKEDAAVLLGIALTGWSEQVPGRLYVCNYCHRRLGVWNLQSEGQDFDVLEEHKKSCPWVIPQPFTDLLGWQQIFELLCKESIFQSTTKTMDVSQYTDYTFSLLQGLR |
|  | binds | binds | Red1-3×FLAG (protein, UniProt Q9UTR8 1-712) MSRSINLDELRKKALESKKKNEEDESNDSDKEDGEISEDDPVIDQSNSVPPMKVPTFPEQIPQLPPFDRFPGTNANFFPFGAPFMLPPALMFGPNTVPFFPQTASSNKTFSKRKRSSENSFNNRNKAKSSETSDSSNTSQSFKENRALKDTATSRPLALSSDTSYQKSEKAKSEKSPFLSTSKNSDANYSKTTNQKEAEKAVSQLFEVGVRFNDFIAEGIEPSVVHTLFLKLGLDSSSASSQGSLTLSADKAARSAKLRKIDSNLSDTHILPGDNGTPTVLPERKNLISLPLLKQDDWLSSSKPFGSSTPNVVIEFDSDDDGDDFSNSKIEQSNLEKPPSNSENGLTMSRSDYLALLRNKEEEIRRMTKLILRLESNKKPYRSPTSAADMKLPSVPVAAVDNKSKTHLDTFEKVVDLSSKADFVEAGPSISSSGASSSAATTNSDTTEQILEAPWLRKTEQIAVVHEEHPAQIKKSEIDILNNLIEKEEGELTKYQTLVKSKTEILTQLYTRKKQLLEQQGKGNVACLPKESDLSMDSITEVSAQADENSSQILSSKTSNAPNGTTETDFEDKVPLVDYISPFYRFKSYRFNQQFVERVPLKYRSLTYSNKIEPMKVFCKYETTGGVCNDDHCEASHFRDIKMTDDEIIQDLSRYIEGNDEIEKESYKSGLDIVMKNTDENTDFVDVATRIVEYHNLWKSERMTIPVAKVSI |

These are yes or no findings as the source states them, for the method shown. In cells and extracts the contact can be indirect. A yes stands for co-enrichment or nearness to the bait. Other partners may have been found. Where a sequence is shown, tags or fusion partners need not be part of it.
